Test system: feral pigs
Experiment: Bait delivery trial: sodium nitrite to feral pigs in food
Format: in vivo, feral pig
Method: The trials were conducted in October 2005 and June 2006. Both trials were designed to test the hypothesis that SN would be lethal to feral pigs when they consumed the toxin freely in food. […] Before the toxin trial, each feral pig was pre-fed daily for 10 days with the bait substrate they were to receive during the toxin trial (bait or dry wheat). During the trial, six feral pigs acted as controls, receiving no toxin, but receiving bait substrate (carrier material). Three of these received wheat and three received the manufactured baits of the type described in Example 2. The remaining 18 feral pigs were divided into three groups of six animals. Three pigs in each group received 250 or 500 g (depending on body size and therefore total toxic dose to deliver) of wheat and the other three received one or two the baits (again, amount of toxin dependent). […] Feral pigs were observed every 15 minutes for 6 hours, then hourly for 6 hours, then at euthanasia 12 hours after clinical signs developed (if they remained alive). Each dose rate contained six animals divided evenly amongst two bait carrier materials. Six controls were used.

Q: Which results are given for `O=NO` [SN, Sodium nitrite]?
A: palatability in wheat (135 mgkg^-1, toxin mixed with honey in a clump in wheat): two from three feral pigs refused any toxin; palatability in wheat (higher doses, toxin mixed throughout the wheat with a tablespoon of honey): all feral pigs consumed grain and toxin readily; time to completely consume all bait material (most animals): 10 to 30 min
